Reference: article PMC4537249
No constants are given. Whether binding was seen depends on the method and setting. Binding seen in cells or lysates may run through a third protein. Some binding calls cover weakened binding; strength is not graded here. Tags and fused reporters may be left off the sequences shown.

Sequences of proteins named here, by UniProt entry; tags and fusion partners are left off.
UniProt O14980: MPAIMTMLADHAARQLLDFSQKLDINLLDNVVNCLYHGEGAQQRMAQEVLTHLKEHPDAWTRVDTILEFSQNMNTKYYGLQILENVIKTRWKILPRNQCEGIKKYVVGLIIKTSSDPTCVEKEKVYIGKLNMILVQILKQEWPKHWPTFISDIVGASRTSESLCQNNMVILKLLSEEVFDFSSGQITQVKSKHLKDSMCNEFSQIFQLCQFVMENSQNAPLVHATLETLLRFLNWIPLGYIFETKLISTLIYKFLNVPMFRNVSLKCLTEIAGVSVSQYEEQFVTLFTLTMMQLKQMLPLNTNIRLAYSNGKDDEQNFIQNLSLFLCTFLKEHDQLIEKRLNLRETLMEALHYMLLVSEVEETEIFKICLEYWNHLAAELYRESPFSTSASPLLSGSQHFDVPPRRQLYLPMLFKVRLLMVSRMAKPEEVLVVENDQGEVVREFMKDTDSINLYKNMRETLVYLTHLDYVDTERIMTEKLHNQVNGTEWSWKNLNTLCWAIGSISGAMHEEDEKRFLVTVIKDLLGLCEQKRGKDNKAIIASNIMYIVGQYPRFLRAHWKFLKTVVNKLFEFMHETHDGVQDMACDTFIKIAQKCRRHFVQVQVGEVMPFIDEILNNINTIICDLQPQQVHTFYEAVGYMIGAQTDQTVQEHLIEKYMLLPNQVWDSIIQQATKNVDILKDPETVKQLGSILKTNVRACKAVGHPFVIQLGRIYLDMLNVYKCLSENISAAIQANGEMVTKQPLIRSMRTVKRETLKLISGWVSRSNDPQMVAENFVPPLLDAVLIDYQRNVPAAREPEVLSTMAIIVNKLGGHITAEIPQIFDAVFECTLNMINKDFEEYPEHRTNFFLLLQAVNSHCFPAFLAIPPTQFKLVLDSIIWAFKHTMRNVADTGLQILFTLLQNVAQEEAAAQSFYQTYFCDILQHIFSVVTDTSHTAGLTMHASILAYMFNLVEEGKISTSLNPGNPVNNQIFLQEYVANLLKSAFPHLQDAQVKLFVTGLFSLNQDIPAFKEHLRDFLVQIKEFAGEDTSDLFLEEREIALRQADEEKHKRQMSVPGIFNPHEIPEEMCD

Target: Chromosome Region Maintenance 1 (CRM1) (human (endogenous in HeLa)) (UniProt O14980)
Test: co-IP; lysates of HeLa cells transfected with GNL3L-GFP variants; equal amounts of lysate precipitated with anti-CRM1 antibody (endogenous CRM1), western blot with anti-GFP antibody

| Binder | binding |
| --- | --- |
| GNL3L^1–582-GFP (wild type GNL3L, C-terminal eGFP fusion) (protein, UniProt Q9NVN8 1-582) MMKLRHKNKKPGEGSKGHKKISWPYPQPAKQNGKKATSKVPSAPHFVHPNDHANREAELKKKWVEEMREKQQAAREQERQKRRTIESYCQDVLRRQEEFEHKEEVLQELNMFPQLDDEATRKAYYKEFRKVVEYSDVILEVLDARDPLGCRCFQMEEAVLRAQGNKKLVLVLNKIDLVPKEVVEKWLDYLRNELPTVAFKASTQHQVKNLNRCSVPVDQASESLLKSKACFGAENLMRVLGNYCRLGEVRTHIRVGVVGLPNVGKSSLINSLKRSRACSVGAVPGITKFMQEVYLDKFIRLLDAPGIVPGPNSEVGTILRNCVHVQKLADPVTPVETILQRCNLEEISNYYGVSGFQTTEHFLTAVAHRLGKKKKGGLYSQEQAAKAVLADWVSGKISFYIPPPATHTLPTHLSAEIVKEMTEVFDIEDTEQANEDTMECLATGESDELLGDTDPLEMEIKLLHSPMTKIADAIENKTTVYKIGDLTGYCTNPNRHQMGWAKRNVDHRPKSNSMVDVCSVDRRSVLQRIMETDPLQQGQALASALKNKKKMQKRADKIASKLSDSMMSALDLSGNADDGVGD | binds |
| GNL3L^51–500-GFP (domain or fragment, UniProt Q9NVN8 51-500) DHANREAELKKKWVEEMREKQQAAREQERQKRRTIESYCQDVLRRQEEFEHKEEVLQELNMFPQLDDEATRKAYYKEFRKVVEYSDVILEVLDARDPLGCRCFQMEEAVLRAQGNKKLVLVLNKIDLVPKEVVEKWLDYLRNELPTVAFKASTQHQVKNLNRCSVPVDQASESLLKSKACFGAENLMRVLGNYCRLGEVRTHIRVGVVGLPNVGKSSLINSLKRSRACSVGAVPGITKFMQEVYLDKFIRLLDAPGIVPGPNSEVGTILRNCVHVQKLADPVTPVETILQRCNLEEISNYYGVSGFQTTEHFLTAVAHRLGKKKKGGLYSQEQAAKAVLADWVSGKISFYIPPPATHTLPTHLSAEIVKEMTEVFDIEDTEQANEDTMECLATGESDELLGDTDPLEMEIKLLHSPMTKIADAIENKTTVYKIGDLTGYCTNPNRHQMGW | no binding |

More lines, now with the values ahead:

| binding | Binder |
| --- | --- |
| no binding | GNL3L^51–547-GFP (domain or fragment, UniProt Q9NVN8 51-547) DHANREAELKKKWVEEMREKQQAAREQERQKRRTIESYCQDVLRRQEEFEHKEEVLQELNMFPQLDDEATRKAYYKEFRKVVEYSDVILEVLDARDPLGCRCFQMEEAVLRAQGNKKLVLVLNKIDLVPKEVVEKWLDYLRNELPTVAFKASTQHQVKNLNRCSVPVDQASESLLKSKACFGAENLMRVLGNYCRLGEVRTHIRVGVVGLPNVGKSSLINSLKRSRACSVGAVPGITKFMQEVYLDKFIRLLDAPGIVPGPNSEVGTILRNCVHVQKLADPVTPVETILQRCNLEEISNYYGVSGFQTTEHFLTAVAHRLGKKKKGGLYSQEQAAKAVLADWVSGKISFYIPPPATHTLPTHLSAEIVKEMTEVFDIEDTEQANEDTMECLATGESDELLGDTDPLEMEIKLLHSPMTKIADAIENKTTVYKIGDLTGYCTNPNRHQMGWAKRNVDHRPKSNSMVDVCSVDRRSVLQRIMETDPLQQGQALASALKN |
| binds | GNL3L^501–582-GFP (domain or fragment, UniProt Q9NVN8 501-582) AKRNVDHRPKSNSMVDVCSVDRRSVLQRIMETDPLQQGQALASALKNKKKMQKRADKIASKLSDSMMSALDLSGNADDGVGD |
